According to the supplement of paper PMC11348887:
Structures can show the parent of a compound that is named as a salt. The list shows a part of the results. Most values lie at the level of the controls, where differences are scatter.

Experiments:
Conditions in all cases: 5 µM; treatment: days 7-14 after plating, readout day 21
[1] = tested on: hPSC-derived cortical neurons (WA09); assay: nucleus area z-score vs screen plate; higher = larger nuclei (more mature)
[2] = tested on: hPSC-derived cortical neurons (WA09); assay: total neurite length per nucleus (MAP2) z-score; higher = more neurite growth
[3] = tested on: hPSC-derived cortical neurons (WA09); assay: nucleus roundness z-score vs screen plate; higher = rounder nuclei (more mature)
[4] = tested on: hPSC-derived cortical neurons (WA09); assay: KCl-induced FOS+/EGR-1+ double-positive nuclei fraction z-score (KCl minus unstimulated); higher = stronger activity-induced IEG response

SMILES | nucleus area z-score [1] | total neurite length per nucleus (z-score) [2] | nucleus roundness z-score [3] | KCl-induced FOS+/EGR-1+ double-positive nuclei fraction z-score [4]
COc1ccc(CCC(=O)c2c(O)cc(O[C@@H]3O[C@H](CO)[C@@H](O)[C@H](O)[C@H]3O[C@@H]3O[C@@H](C)[C@H](O)[C@@H](O)[C@H]3O)cc2O)cc1O [Neohesperidin Dihydrochalcone (Nhdc)] | 1.57 | -0.382 | -0.55 | 0.927
CCOc1nc2cccc(C(=O)O)c2n1Cc1ccc(-c2ccccc2-c2noc(=O)[nH]2)cc1 [Azilsartan] | -13.8 | -1.95 | -8.97 | -0.29
Cn1cnc2c(F)c(Nc3ccc(Br)cc3Cl)c(C(=O)NOCCO)cc21 [Selumetinib (AZD6244)] | -1.64 | 1.07 | 0.371 | 0.249
CN1CCN(C2CCN(C(=O)Nc3cc(Oc4ccc(NC(=O)C5(C(=O)Nc6ccc(F)cc6)CC5)c(F)c4)ccn3)CC2)CC1 [Golvatinib (E7050)] | -3.2 | -2.56 | -5.2 | -0.728
CC(=O)O[C@@]12CO[C@@H]1C[C@H](O)[C@@]1(C)C(=O)[C@H](O)C3=C(C)[C@@H](OC(=O)[C@H](O)[C@@H](NC(=O)OC(C)(C)C)c4ccccc4)C[C@@](O)([C@@H](OC(=O)c4ccccc4)[C@H]21)C3(C)C [Docetaxel] | -1.13 | 0.765 | -0.737 | -0.63
CC(C)C(=O)Nc1ccc([N+](=O)[O-])c(C(F)(F)F)c1 [Flutamide] | 0.763 | -0.0044 | -1.8 | 1.12
c1ccc2c(c1)CCCC2C1=NCCN1 (centres undefined) [Tetrahydrozoline HCl] | -1.84 | -0.201 | -0.912 | -0.541
COCCOc1cnc2ccn([C@H](C)c3nnc4c(F)cc(-c5cnn(C)c5)cn34)c(=O)c2c1 | 0.734 | 0.925 | 0.335 | 2.81
NC[C@@H]1O[C@H](O[C@H]2[C@@H](O)[C@H](O[C@@H]3[C@@H](O)[C@H](N)C[C@H](N)[C@H]3O[C@H]3O[C@H](CO)[C@@H](O)[C@H](O)[C@H]3N)O[C@@H]2CO)[C@H](N)[C@@H](O)[C@@H]1O [Paromomycin Sulfate] | 0.943 | -0.684 | -1.08 | 1.39
CN1CCN(CCCN2c3ccccc3Sc3ccc(C(F)(F)F)cc32)CC1 [Trifluoperazine 2HCl] | -3.55 | -2.83 | -1.81 | -2
Cc1nc(-c2ccc(OCC(C)C)c(C#N)c2)sc1C(=O)O [Febuxostat] | 0.99 | 0.000721 | -0.316 | 0.896
CCOc1cc(N)c(Cl)cc1C(=O)NCC1CN(Cc2ccc(F)cc2)CCO1 (centres undefined) [Mosapride Citrate] | 1.52 | 0.242 | 0.109 | 0.159
CC(=O)OCOC(=O)CN(CC(=O)OCOC(C)=O)c1ccccc1OCCOc1ccccc1N(CC(=O)OCOC(C)=O)CC(=O)OCOC(C)=O | -0.18 | 1.45 | 0.625 | 0.488
COC(=O)C1=C(C)NC(C)=C(C(=O)OC(C)(C)CN(C)CCC(c2ccccc2)c2ccccc2)C1c1cccc([N+](=O)[O-])c1 (centres undefined) [Lercanidipine hydrochloride] | -16.4 | -6.4 | -10.2 | -1.4
COc1nc(N)nc2c1ncn2[C@@H]1O[C@H](CO)[C@@H](O)[C@@H]1O [Nelarabine] | 0.195 | 2.18 | -0.00755 | 0.819
O=C(O)[C@H]1CSC(c2nc3ccc(O)cc3s2)=N1 [D-Luciferin] | 1.4 | 0.457 | -0.253 | 0.991
COC1=CC(=O)C[C@@H](C)[C@]12Oc1c(Cl)c(OC)cc(OC)c1C2=O [Griseofulvin] | 0.854 | -0.812 | -1.25 | -0.398
COCCOC(=O)C1=C(C)NC(C)=C(C(=O)OC(C)C)C1c1cccc([N+](=O)[O-])c1 (centres undefined) [Nimodipine] | -0.911 | -1.79 | -1 | -1.28
CCN1C[C@H](C)n2c(c(O)c3c(=O)n(Cc4ccc(F)c(Cl)c4)nc(C(=O)NC)c32)C1=O | 1.12 | -0.839 | -0.823 | 0.383
C[C@H]1O[C@H](O[C@H]2[C@H](O)[C@@H](O)[C@@H](O[C@H]3[C@H](O)[C@@H](O)C(O)O[C@@H]3CO)O[C@@H]2CO)[C@H](O)[C@@H](O)[C@@H]1N[C@H]1C=C(CO)[C@@H](O)[C@H](O)[C@H]1O (some centres undefined) [Acarbose] | -0.246 | -0.432 | -0.0806 | 0.695
CC(=O)CCCCn1c(=O)c2c(ncn2C)n(C)c1=O [Pentoxifylline] | 1.43 | 1.11 | -0.77 | 0.628
OCCN(CCO)c1nc(N2CCCCC2)c2nc(N(CCO)CCO)nc(N3CCCCC3)c2n1 [Dipyridamole] | 0.448 | -0.739 | 0.396 | -0.346
CC1=C(/C=C/C(C)=C/C=C/C(C)=C/C(=O)O)C(C)(C)CCC1 [Tretinoin] | 0.126 | -1.02 | -1.82 | -1.13
COc1ccc2cc(OCC3(C(=O)O)CN(C(=O)c4ccc(F)cc4)C3)ccc2c1 | 0.404 | 1.35 | 0.812 | 2.71
CC(C)(C)c1cc(NC(=O)Nc2ccc(-c3cn4c(n3)sc3cc(OCCN5CCOCC5)ccc34)cc2)no1 [Quizartinib (AC220)] | -0.413 | -0.142 | -4.45 | 1.63
Cc1c(C(=O)Nc2ccc(Oc3ccnc4[nH]cc(-c5ccccc5)c34)c(F)c2)c(=O)n(-c2ccc(F)cc2)n1C | 1.49 | 1.56 | 1.94 | 0.965

A portion from the list above:
SMILES | nucleus area z-score [1] | total neurite length per nucleus (z-score) [2] | nucleus roundness z-score [3] | KCl-induced FOS+/EGR-1+ double-positive nuclei fraction z-score [4]
CN1CCN(C2CCN(C(=O)Nc3cc(Oc4ccc(NC(=O)C5(C(=O)Nc6ccc(F)cc6)CC5)c(F)c4)ccn3)CC2)CC1 [Golvatinib (E7050)] | -3.2 | -2.56 | -5.2 | -0.728
CC(=O)O[C@@]12CO[C@@H]1C[C@H](O)[C@@]1(C)C(=O)[C@H](O)C3=C(C)[C@@H](OC(=O)[C@H](O)[C@@H](NC(=O)OC(C)(C)C)c4ccccc4)C[C@@](O)([C@@H](OC(=O)c4ccccc4)[C@H]21)C3(C)C [Docetaxel] | -1.13 | 0.765 | -0.737 | -0.63
CC(C)C(=O)Nc1ccc([N+](=O)[O-])c(C(F)(F)F)c1 [Flutamide] | 0.763 | -0.0044 | -1.8 | 1.12

Following part

SMILES | nucleus area z-score [1] | total neurite length per nucleus (z-score) [2] | nucleus roundness z-score [3] | KCl-induced FOS+/EGR-1+ double-positive nuclei fraction z-score [4]
CC[C@H]1OC(=O)[C@H](C)[C@@H](O[C@H]2C[C@@](C)(OC)[C@@H](O)[C@H](C)O2)[C@H](C)[C@@H](O[C@@H]2O[C@H](C)C[C@H](N(C)C)[C@H]2O)[C@](C)(OC)C[C@@H](C)C(=O)[C@H](C)[C@@H](O)[C@]1(C)O [Clarithromycin] | 1.43 | 1.45 | 1.12 | 2.66
CN1CCc2c(c3ccccc3n2Cc2ccc(C(=O)NO)cc2)C1 [Tubastatin A] | -0.466 | 0.509 | -0.344 | 0.127
COc1ccc(CCN(C)CCCC(C#N)(c2ccc(OC)c(OC)c2)C(C)C)cc1OC (centres undefined) [Verapamil HCl] | -0.62 | -1.03 | -0.839 | -0.683
OCCN1C[C@H](O)[C@@H](O)[C@H](O)[C@H]1CO [Miglitol] | -0.567 | -0.344 | 0.0771 | 1.23
CCOC(=O)c1c(C)n(C)c2ccc(O)cc12 [Mecarbinate] | 0.0897 | 0.07 | -0.178 | -0.645
COc1ccc(/C=C/C(=O)C2(C(=O)/C=C/c3ccc(OC)c(OC)c3)CCCCC2)cc1OC | -0.341 | 1.35 | 0.2 | 0.391
Cn1c(=O)c2[nH]cnc2n(C)c1=O [Aminophylline] | 0.103 | 1.49 | 1.67 | 0.0414
COc1cc2ncnc(Nc3ccc(F)c(Cl)c3)c2cc1NC(=O)/C=C/CN1CCCCC1 | -0.354 | 0.167 | 0.673 | -0.801
CN1C(C(=O)Nc2ccccn2)=C(O)c2sccc2S1(=O)=O [Tenoxicam] | 1.57 | 0.438 | -0.13 | 3.41
CNC(=O)[C@@H](NC(=O)[C@H](CC(C)C)[C@H](O)C(=O)NO)C(C)(C)C [Marimastat(BB-2516)] | 0.442 | -0.381 | 1 | 0.806
C=CC[N+]1([C@H]2C[C@H]3[C@@H]4CC[C@H]5C[C@H](O)[C@@H](N6CCOCC6)C[C@]5(C)[C@H]4CC[C@]3(C)[C@H]2OC(C)=O)CCCC1 [Rocuronium Bromide] | 1.3 | 1.17 | 0.449 | 0.764
Cc1c(OCC(F)(F)F)ccnc1C[S+]([O-])c1nc2ccccc2[nH]1 (centres undefined) [Lansoprazole] | 1.43 | -0.602 | -0.949 | 0.66
c1cc(-c2cnn3cc(-c4ccc(OCCN5CCCCC5)cc4)cnc23)ccn1 [Dorsomorphin 2HCl] | 1.35 | -0.649 | -3.46 | -0.665
Nc1nc(F)nc2c1ncn2[C@@H]1O[C@H](COP(=O)(O)O)[C@@H](O)[C@@H]1O [Fludarabine Phosphate] | 0.6 | 6.61 | 1.33 | 5.76
O=C(C[S+]([O-])Cc1ccco1)NC/C=C\COc1cc(CN2CCCCC2)ccn1 (centres undefined) [Lafutidine] | 1.11 | 0.381 | -0.296 | 0.539
c1cc(CN2CCCNCCNCCCNCC2)ccc1CN1CCCNCCNCCCNCC1 [Plerixafor 8HCl (AMD3100 8HCl)] | 1.61 | 0.735 | 0.122 | 0.619
NC(=O)c1nc(F)cnc1O [Favipiravir (T-705)] | 0.74 | 1.39 | 1.24 | -0.104
CCCCC[C@H](O)/C=C/[C@H]1[C@H](O)CC(=O)[C@@H]1CCCCCCC(=O)O [Alprostadil] | 0.0718 | -0.345 | 0.0667 | 0.435
O=C(CCCCCCNC(=O)c1cnc(N(c2ccccc2)c2ccccc2)nc1)NO [Rocilinostat (ACY-1215)] | -3.41 | -0.211 | -1.76 | 0.451
CNc1nc(Nc2cnn([C@H]3CCN(C4COC4)C[C@@H]3F)c2Cl)ncc1C(F)(F)F | 0.313 | 0.11 | 0.158 | 0.165
CN1CCN(c2ccc(-c3ccncc3-c3cc(F)c(O)c(F)c3)cc2)CC1 | -1.04 | -1.04 | -0.777 | -0.189
O=C1NC(=O)[C@@H](c2cn3c4c(cccc24)CCC3)[C@@H]1c1c[nH]c2ccccc12 [Tivantinib (ARQ 197)] | -3.21 | 0.451 | -0.49 | -1.17
Cc1ccc([C@@H]2O[C@H](CO)[C@@H](O)[C@H](O)[C@H]2O)cc1Cc1ccc(-c2ccc(F)cc2)s1 [Canagliflozin] | 2.23 | 0.755 | 0.613 | -0.346
COc1ccc2cc([C@H](C)C(=O)O)ccc2c1 [Naproxen] | -0.0461 | -1.3 | -3.01 | -1.64
C=C1/C(=C\C=C2/CCC[C@]3(C)[C@@H]([C@H](C)/C=C/[C@H](C)C(C)C)CC[C@@H]23)C[C@@H](O)C[C@@H]1O [Doxercalciferol] | 0.193 | 0.00194 | -0.0189 | 0.892
